Source: publication PMC9545041
These are yes or no findings as the source states them, for the method shown. In cells and extracts the contact can be indirect. These calls come from enrichment with a bait or labelling near it, and not all partners need be listed.

The chains behind the UniProt entries cited, without tags or fusion partners.
UniProt O75030: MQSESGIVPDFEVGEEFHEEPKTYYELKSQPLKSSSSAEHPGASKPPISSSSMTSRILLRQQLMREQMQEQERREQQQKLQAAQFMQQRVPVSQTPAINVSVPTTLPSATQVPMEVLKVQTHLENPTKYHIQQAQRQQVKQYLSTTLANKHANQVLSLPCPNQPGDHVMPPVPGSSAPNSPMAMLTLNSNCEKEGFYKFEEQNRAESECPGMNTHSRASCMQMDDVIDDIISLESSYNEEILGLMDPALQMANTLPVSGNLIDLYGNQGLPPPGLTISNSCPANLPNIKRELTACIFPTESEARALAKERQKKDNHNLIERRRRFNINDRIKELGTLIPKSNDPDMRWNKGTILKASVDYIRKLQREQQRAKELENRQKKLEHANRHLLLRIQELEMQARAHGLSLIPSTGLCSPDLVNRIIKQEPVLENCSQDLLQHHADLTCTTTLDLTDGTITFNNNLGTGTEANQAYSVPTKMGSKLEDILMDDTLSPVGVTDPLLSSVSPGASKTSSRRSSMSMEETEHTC
UniProt P51784: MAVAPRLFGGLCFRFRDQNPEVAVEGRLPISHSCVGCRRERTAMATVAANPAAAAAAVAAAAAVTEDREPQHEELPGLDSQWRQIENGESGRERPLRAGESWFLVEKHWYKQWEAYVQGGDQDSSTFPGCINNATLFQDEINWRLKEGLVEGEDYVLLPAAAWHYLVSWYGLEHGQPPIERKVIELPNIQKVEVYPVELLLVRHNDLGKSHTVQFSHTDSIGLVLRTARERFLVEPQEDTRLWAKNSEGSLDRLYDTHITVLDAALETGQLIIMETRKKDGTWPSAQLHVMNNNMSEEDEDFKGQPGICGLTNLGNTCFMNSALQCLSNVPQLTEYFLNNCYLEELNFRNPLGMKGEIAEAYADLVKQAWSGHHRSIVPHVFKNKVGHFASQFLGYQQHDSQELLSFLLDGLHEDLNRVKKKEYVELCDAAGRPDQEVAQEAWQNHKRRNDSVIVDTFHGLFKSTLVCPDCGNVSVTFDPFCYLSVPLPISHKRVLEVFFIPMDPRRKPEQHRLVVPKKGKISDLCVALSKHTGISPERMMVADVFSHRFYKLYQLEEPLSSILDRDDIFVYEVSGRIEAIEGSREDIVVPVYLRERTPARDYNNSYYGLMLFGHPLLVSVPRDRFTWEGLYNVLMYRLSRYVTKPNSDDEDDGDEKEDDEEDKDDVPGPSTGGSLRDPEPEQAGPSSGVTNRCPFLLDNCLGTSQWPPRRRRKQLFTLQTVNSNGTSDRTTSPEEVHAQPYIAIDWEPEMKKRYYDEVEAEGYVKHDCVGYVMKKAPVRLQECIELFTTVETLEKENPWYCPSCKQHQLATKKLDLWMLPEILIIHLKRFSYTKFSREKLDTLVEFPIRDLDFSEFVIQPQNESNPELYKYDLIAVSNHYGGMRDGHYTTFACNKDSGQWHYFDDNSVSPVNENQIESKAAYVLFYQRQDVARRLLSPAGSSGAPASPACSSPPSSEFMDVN
UniProt Q9P2D1: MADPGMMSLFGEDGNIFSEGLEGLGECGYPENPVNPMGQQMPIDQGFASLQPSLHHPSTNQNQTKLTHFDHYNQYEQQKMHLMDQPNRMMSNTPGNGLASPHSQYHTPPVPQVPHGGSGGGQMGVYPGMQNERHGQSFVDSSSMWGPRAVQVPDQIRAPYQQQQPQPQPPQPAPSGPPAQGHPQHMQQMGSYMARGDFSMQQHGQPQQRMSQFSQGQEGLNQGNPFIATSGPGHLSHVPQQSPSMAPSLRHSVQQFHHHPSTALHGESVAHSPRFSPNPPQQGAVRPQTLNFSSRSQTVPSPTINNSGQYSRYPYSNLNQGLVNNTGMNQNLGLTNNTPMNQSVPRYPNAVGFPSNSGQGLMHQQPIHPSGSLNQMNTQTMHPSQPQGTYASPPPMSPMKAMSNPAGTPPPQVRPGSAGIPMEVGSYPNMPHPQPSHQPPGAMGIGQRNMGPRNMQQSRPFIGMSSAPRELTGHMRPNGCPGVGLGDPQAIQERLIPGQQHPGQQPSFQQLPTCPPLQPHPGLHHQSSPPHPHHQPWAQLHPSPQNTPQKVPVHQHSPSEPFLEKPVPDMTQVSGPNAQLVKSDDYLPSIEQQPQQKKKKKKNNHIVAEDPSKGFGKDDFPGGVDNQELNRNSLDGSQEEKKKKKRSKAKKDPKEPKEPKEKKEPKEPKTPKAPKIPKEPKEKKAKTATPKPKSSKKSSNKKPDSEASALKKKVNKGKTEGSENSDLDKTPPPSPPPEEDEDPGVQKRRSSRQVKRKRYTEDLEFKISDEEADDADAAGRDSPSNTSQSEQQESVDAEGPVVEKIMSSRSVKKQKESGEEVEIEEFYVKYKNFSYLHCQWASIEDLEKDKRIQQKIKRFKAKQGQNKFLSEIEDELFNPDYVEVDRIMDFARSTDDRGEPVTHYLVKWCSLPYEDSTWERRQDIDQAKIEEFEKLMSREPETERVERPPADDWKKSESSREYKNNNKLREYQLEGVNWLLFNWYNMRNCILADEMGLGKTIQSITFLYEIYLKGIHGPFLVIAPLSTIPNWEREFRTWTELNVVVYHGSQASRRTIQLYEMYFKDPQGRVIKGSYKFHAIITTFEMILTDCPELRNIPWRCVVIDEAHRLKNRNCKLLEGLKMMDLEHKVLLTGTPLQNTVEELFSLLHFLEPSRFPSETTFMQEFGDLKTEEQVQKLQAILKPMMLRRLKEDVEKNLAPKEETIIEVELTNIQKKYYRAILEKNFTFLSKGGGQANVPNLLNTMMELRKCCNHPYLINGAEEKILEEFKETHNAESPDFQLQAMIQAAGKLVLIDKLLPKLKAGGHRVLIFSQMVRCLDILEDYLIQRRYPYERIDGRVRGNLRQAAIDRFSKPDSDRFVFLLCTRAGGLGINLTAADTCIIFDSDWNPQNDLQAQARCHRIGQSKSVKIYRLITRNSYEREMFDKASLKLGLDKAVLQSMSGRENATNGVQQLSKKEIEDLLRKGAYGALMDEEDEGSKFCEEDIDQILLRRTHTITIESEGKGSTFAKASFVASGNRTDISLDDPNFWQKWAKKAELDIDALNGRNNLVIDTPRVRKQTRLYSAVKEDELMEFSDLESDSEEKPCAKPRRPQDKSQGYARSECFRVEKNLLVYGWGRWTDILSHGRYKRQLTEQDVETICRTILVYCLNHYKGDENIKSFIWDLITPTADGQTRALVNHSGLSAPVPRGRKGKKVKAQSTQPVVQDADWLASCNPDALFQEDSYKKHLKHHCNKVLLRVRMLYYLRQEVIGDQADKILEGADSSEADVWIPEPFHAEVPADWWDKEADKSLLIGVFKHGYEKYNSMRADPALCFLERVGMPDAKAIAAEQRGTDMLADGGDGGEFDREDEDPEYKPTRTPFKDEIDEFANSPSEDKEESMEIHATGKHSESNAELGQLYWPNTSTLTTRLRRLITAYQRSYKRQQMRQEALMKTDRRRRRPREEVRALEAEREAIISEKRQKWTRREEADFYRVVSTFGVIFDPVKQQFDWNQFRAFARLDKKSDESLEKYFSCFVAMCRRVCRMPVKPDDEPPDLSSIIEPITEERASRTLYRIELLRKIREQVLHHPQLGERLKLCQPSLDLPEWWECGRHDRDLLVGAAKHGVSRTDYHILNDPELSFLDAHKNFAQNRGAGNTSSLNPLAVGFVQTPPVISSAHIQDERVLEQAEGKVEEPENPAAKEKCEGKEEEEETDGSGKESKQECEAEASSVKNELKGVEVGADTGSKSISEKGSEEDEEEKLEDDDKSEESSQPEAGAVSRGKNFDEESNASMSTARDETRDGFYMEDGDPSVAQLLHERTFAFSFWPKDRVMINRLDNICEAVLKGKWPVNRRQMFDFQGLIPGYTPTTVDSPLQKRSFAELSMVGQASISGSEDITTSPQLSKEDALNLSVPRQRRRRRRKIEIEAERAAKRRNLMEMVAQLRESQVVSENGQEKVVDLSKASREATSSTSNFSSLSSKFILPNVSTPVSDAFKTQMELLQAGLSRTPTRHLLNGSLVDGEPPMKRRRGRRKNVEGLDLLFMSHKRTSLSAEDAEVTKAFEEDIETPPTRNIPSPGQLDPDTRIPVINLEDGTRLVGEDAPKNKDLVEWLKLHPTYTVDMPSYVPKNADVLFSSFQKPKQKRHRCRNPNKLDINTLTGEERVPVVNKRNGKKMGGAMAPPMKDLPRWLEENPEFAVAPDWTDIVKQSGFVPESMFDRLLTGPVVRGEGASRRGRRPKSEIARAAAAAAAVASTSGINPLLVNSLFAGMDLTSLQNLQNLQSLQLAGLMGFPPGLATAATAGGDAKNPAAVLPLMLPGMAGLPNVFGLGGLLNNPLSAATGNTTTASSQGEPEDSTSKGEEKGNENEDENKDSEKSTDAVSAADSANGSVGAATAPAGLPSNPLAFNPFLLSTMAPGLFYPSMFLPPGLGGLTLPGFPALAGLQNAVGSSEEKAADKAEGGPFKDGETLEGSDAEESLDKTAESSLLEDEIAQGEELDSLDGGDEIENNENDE
UniProt P51532: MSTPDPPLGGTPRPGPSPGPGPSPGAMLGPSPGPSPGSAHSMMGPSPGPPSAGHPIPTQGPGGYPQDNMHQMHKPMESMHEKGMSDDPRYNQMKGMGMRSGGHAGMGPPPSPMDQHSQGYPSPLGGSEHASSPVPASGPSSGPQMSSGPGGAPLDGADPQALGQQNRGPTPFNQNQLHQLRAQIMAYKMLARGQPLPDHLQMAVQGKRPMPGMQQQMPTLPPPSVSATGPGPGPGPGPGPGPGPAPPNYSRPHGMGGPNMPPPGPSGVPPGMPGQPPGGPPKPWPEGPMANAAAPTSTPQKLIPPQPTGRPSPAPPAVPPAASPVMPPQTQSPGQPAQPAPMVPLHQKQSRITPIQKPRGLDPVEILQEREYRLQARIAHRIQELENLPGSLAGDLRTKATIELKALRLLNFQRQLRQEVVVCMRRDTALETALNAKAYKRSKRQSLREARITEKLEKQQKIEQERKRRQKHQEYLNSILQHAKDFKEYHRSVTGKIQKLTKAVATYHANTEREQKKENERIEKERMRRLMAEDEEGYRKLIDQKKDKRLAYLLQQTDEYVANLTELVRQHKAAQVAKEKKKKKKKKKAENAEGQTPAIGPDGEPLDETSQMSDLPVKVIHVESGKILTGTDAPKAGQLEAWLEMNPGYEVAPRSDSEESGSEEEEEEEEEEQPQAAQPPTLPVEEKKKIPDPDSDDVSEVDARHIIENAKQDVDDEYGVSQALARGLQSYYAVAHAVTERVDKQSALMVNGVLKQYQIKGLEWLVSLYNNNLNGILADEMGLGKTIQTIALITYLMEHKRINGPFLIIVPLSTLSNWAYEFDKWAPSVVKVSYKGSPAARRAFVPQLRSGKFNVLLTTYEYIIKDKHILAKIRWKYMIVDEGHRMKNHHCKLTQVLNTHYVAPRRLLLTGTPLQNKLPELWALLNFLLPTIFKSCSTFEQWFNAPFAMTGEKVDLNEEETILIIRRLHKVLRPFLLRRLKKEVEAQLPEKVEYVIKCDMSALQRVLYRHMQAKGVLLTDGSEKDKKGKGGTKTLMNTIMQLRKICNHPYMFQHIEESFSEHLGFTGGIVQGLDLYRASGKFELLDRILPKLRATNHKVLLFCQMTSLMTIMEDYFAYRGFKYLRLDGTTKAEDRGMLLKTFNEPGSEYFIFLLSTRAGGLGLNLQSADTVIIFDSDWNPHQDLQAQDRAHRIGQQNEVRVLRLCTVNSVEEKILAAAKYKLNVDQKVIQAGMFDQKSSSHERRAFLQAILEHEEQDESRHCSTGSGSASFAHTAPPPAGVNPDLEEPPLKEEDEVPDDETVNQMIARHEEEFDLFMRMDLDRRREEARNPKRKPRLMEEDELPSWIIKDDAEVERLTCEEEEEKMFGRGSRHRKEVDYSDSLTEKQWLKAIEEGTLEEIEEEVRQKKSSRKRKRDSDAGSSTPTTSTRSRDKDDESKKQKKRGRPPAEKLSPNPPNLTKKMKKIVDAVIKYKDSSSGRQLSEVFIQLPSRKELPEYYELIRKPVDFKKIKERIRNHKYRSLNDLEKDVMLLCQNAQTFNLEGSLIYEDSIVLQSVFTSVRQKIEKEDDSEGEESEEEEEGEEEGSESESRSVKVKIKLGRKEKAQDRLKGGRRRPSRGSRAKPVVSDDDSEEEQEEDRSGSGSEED
UniProt P05412: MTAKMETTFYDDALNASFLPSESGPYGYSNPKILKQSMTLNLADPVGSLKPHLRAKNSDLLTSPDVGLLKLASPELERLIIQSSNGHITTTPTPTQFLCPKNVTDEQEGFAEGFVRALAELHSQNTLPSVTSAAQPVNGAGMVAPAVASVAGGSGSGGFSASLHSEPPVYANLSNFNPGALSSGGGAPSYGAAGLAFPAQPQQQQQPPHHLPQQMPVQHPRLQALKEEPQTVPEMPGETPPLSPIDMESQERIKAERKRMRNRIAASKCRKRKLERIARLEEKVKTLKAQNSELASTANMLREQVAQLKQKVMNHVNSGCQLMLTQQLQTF

target: BirA*‐FLAG‐MITF (microphthalmia‐associated transcription factor) (UniProt O75030); assay: proximity labelling; BioID: BirA*‐FLAG‐MITF stably expressed in Flp‐In T‐REx HEK293, tetracycline 24 h, biotin 4 h; RIPA lysate, biotinylated proteins captured on streptavidin‐Sepharose, on-bead trypsin, LC-MS/MS; SAINTexpress against NLS‐BirA*‐FLAG controls, 1% FDR

Molecule | binding
USP11 (from UniProt P51784 1-963) | binds
CHD7 (from UniProt Q9P2D1 1-2997) | binds
TFE3 (from UniProt P19532 1-575) | binds
SMARCA4 (from UniProt P51532 1-1647) | binds
JUN (from UniProt P05412 1-331) | binds
ATF3 (protein, UniProt P18847 1-181) MMLQHPGQVSASEVSASAIVPCLSPPGSLVFEDFANLTPFVKEELRFAIQNKHLCHRMSSALESVTVSDRPLGVSITKAEVAPEEDERKKRRRERNKIAAAKCRNKKKEKTECLQKESEKLESVNAELKAQIEELKNEKQHLIYMLNLHRPTCIVRAQNGRTPEDERNLFIQQIKEGTLQS | binds
TRIM24 (protein, UniProt O15164 1-1050) MEVAVEKAVAAAAAASAAASGGPSAAPSGENEAESRQGPDSERGGEAARLNLLDTCAVCHQNIQSRAPKLLPCLHSFCQRCLPAPQRYLMLPAPMLGSAETPPPVPAPGSPVSGSSPFATQVGVIRCPVCSQECAERHIIDNFFVKDTTEVPSSTVEKSNQVCTSCEDNAEANGFCVECVEWLCKTCIRAHQRVKFTKDHTVRQKEEVSPEAVGVTSQRPVFCPFHKKEQLKLYCETCDKLTCRDCQLLEHKEHRYQFIEEAFQNQKVIIDTLITKLMEKTKYIKFTGNQIQNRIIEVNQNQKQVEQDIKVAIFTLMVEINKKGKALLHQLESLAKDHRMKLMQQQQEVAGLSKQLEHVMHFSKWAVSSGSSTALLYSKRLITYRLRHLLRARCDASPVTNNTIQFHCDPSFWAQNIINLGSLVIEDKESQPQMPKQNPVVEQNSQPPSGLSSNQLSKFPTQISLAQLRLQHMQQQVMAQRQQVQRRPAPVGLPNPRMQGPIQQPSISHQQPPPRLINFQNHSPKPNGPVLPPHPQQLRYPPNQNIPRQAIKPNPLQMAFLAQQAIKQWQISSGQGTPSTTNSTSSTPSSPTITSAAGYDGKAFGSPMIDLSSPVGGSYNLPSLPDIDCSSTIMLDNIVRKDTNIDHGQPRPPSNRTVQSPNSSVPSPGLAGPVTMTSVHPPIRSPSASSVGSRGSSGSSSKPAGADSTHKVPVVMLEPIRIKQENSGPPENYDFPVVIVKQESDEESRPQNANYPRSILTSLLLNSSQSSTSEETVLRSDAPDSTGDQPGLHQDNSSNGKSEWLDPSQKSPLHVGETRKEDDPNEDWCAVCQNGGELLCCEKCPKVFHLSCHVPTLTNFPSGEWICTFCRDLSKPEVEYDCDAPSHNSEKKKTEGLVKLTPIDKRKCERLLLFLYCHEMSLAFQDPVPLTVPDYYKIIKNPMDLSTIKKRLQEDYSMYSKPEDFVADFRLIFQNCAEFNEPDSEVANAGIKLENYFEELLKNLYPEKRFPKPEFRNESEDNKFSDDSDDDFVQPRKKRLKSIEERQLLK | binds
